Consider 62 substances from the supplement of paper PMC5949888.

Most values lie at the floor of the assay. Slopes are relative: functional sequences can read slightly below zero.

The data set relates to Saccharomyces cerevisiae PS128 hsf1 delta, HSF1(1-493) fusion. As to the kind of experiment: growth estimate (transactivation domain function in HSF1 fusion, heat-shock survival) (a.u. (slope of normalised read count over time)); higher = stronger growth at 37°C, i.e. more transactivation activity. The following applies: library: random library.
In the case of LSVGTREEVVWWELGLQSN, the growth estimate is 0.0527.
Take RVQGRGTIILVCVVQWNLYC: the growth estimate was below -0.25.
The same measure for KVYRDDANFCPNHAADGVLT: below -0.25; for LDKWAFGVTGLTPANPSLGT: below -0.25; for VVHAG: below -0.25.
Next, QGYYHVRGHPGRARGKTISG: below -0.25.
As to LRKVRLSG, the growth estimate is below -0.25.
TGY: the growth estimate was below -0.25.
As to ARRWDTHWSPFRSDY, the growth estimate was -0.154.
Take RTPPGLHALTRVTDHTTH: the growth estimate was below -0.25.
With CVSRRQP, the growth estimate was below -0.25.
Regarding TRLYIWWVVCREYRALAAGY, the growth estimate is below -0.25.
In the case of LPGEETLFEALNSNVSF, the growth estimate is below -0.25.
For RDYL, the growth estimate was below -0.25.
Consider SVDVLN, for which the growth estimate is below -0.25.
The same measure for KRAIGSNDLEISILRSGVLA: below -0.25; for FTSGVISVVWTAGSRRVTHR: below -0.25; for SEPGATVHGA: below -0.25.
Turning to WSQGSPGVSY, the growth estimate is below -0.25.
With LCVKNHPECAFGDATRLALI, the growth estimate was below -0.25.
For the substance PRVVAYAGMGRAPWAVRM, the growth estimate was below -0.25.
Turning to RHLLRHCVQLGSAP, the growth estimate was below -0.25.
For the substance WTVPIL, the growth estimate is below -0.25.
Take LAKRLCSSWSHLT: the growth estimate is below -0.25.
The same measure for GPSPRIGRPFWSMCVLIY: below -0.25; for KANALGSRPKRPVRQGDPVC: below -0.25.
For FNRARNVIAQTGLLWVVPY, the growth estimate was below -0.25.
On to PTQATHGLLMVTVPYCPASP, for which the growth estimate is below -0.25.
The same measure for DVCGADKRAKIDVHIGVWSV: 0.021; for HHYKKLCNGSLCRPCPIWRG: below -0.25; for FTYHT: below -0.25.
For GEGRAVRFIGRAGLRGDQLR, the growth estimate was below -0.25.
NYVRNSVERLSEHKHVSPSN: the growth estimate was below -0.25.
With LRRRPKVCYSWRYV, the growth estimate was below -0.25.
The same measure for IIGNLLKGSL: below -0.25; for VSVHACLGTHSQGPITG: below -0.25; for GRTSYRGAVGMLLISWGHN: below -0.25.
LCRSVCQLKSGPLEYGPFCY: the growth estimate was below -0.25.
For VRYEKCTDPSGAEVLGGTVF, the growth estimate was below -0.25.
With SRASLRKCAVQARGERRACW, the growth estimate is below -0.25.
For FNLPPISRTGR, the growth estimate is below -0.25.
WVICQHRRGRHRVPIITVRV: the growth estimate was below -0.25.
As to VYLMQGGKHAMRQTRVRT, the growth estimate was below -0.25.
Regarding YEISGLNNSSLLCRGATLPD, the growth estimate is below -0.25.
The same measure for SCYVNCVRGFQSCDRS: below -0.25; for TYSIWLTVYKSYIINAIRR: below -0.25.
Consider QASWISPYVTVS, for which the growth estimate was -0.248.
CYSRGARPQFFGAKCARDGI: the growth estimate is below -0.25.
Turning to YARSAVGLQLLLAHYEYEKR, the growth estimate was below -0.25.
For the substance LGRINRERWVVTDRSDGCG, the growth estimate is below -0.25.
On to SYGEHHLERAVVDEISGPHA, for which the growth estimate was below -0.25.
In the case of LPAGVVQNLAWLCAPAMRLS, the growth estimate is below -0.25.
On to RWIILAPEITEQQRVNTGTH, for which the growth estimate was below -0.25.
The same measure for VNIMAPVRQRQCVAS: below -0.25; for QSRTPSAAAAPQVQKPCEDR: below -0.25.
Regarding QSLRRDASCTNGQGFFRVMV, the growth estimate was below -0.25.
As to EEGRGCTLRPGRQ, the growth estimate is below -0.25.
In the case of TCQPCAFYQIQTYRETGLAA, the growth estimate was below -0.25.
With PPAPTAR, the growth estimate was below -0.25.
The same measure for HKSQRTF: below -0.25; for SLQRSVYRYSA: below -0.25; for AERLMLHGCGQCLKASWGLA: below -0.25.
